# Measured values reported in the supplement of paper PMC4807443.
# Where a name gives a salt, the structure may show the parent alone. The list shows a part of the results. The numbers are fractions of the control, whatever unit the source prints. Most values lie at the level of the controls, where differences are scatter.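 MIN6 is a mouse insulinoma beta-cell line that stably carries a lentiviral reporter in which the Pdx1 and Ins1 promoters each drive a nucleus-targeted fluorescent protein; cells were counted by automated imaging with a Hoechst nuclear stain. In the screen, a drug was a possible hit when its Ins1 promoter readout lay beyond two median absolute deviations from the DMSO controls while Pdx1 activity stayed near normal.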
# System: MIN6
# Assay: % Pdx1+ Ins1+ (double-positive, mature) cells relative to DMSO control (fold of DMSO control); higher = more mature Ins1 promoter-active cells
# Settings: 8.5 µM; 48 h; glucose 5 mM
row,SMILES,% Pdx1+ Ins1+
1,CCC(=O)O[C@]1(C(=O)SCF)[C@H](C)C[C@H]2[C@@H]3C[C@H](F)C4=CC(=O)C=C[C@]4(C)[C@@]3(F)[C@@H](O)C[C@@]21C [Fluticasone propionate],0.955
2,C[N+]1(C)CCCC1C(=O)O (configuration not stated) [Stachydrine hydrochloride],0.999
3,Nc1ccc(/N=N/c2ccccc2)c(N)n1 [Phenazopyridine hydrochloride],0.758
4,CC1=CC(=O)C2=C(C)CC[C@@H]3[C@H](OC(=O)[C@H]3C)[C@@H]12 [Leucomisine],0.98
5,CN(C)CCOC(=O)C(c1ccccc1)C1(O)CCCC1 (configuration not stated) [Cyclopentolate hydrochloride],0.973
6,OCCN1CCN(CC/C=C2/c3ccccc3Sc3ccc(Cl)cc32)CC1 [Zuclopenthixol hydrochloride],0.876
7,CCN(CC)C(C)CN1c2ccccc2Sc2ccccc21 (configuration not stated) [Ethopropazine hydrochloride],1.08
8,CCCNC(=O)NS(=O)(=O)c1ccc(Cl)cc1 [Chlorpropamide],0.975
9,Clc1cccc(Cl)c1NC1=NCCN1 [Clonidine hydrochloride],0.765
10,N=C(N)NCCCCNC(=N)N [Arcaine sulfate],0.962
11,Nc1nc2c(ncn2COC(CO)CO)c(=O)[nH]1 [Ganciclovir],0.946
12,CC=CC(=O)N(CC)c1ccccc1C [Crotamiton],0.979
13,CNCCc1ccccn1 [Betahistine mesylate],0.908
14,NCCCCCC(=O)O [Aminocaproic acid],0.967
15,CN(C)C(=N)NC(=N)N [Metformin hydrochloride],1.15
16,CCN(CC)C(=O)c1ccc(O)c(OC)c1 [Ethamivan],1.01
17,C[C@H]1[C@H](C)CC[C@]2(C(=O)O)CC[C@]3(C)C(=CC[C@@H]4[C@@]5(C)CC[C@H](O)C(C)(C)[C@@H]5CC[C@]43C)[C@H]12 [Ursolic acid],1.02
18,O=C(c1ccc(F)cc1)C1CCN(CCn2c(=O)[nH]c3ccccc3c2=O)CC1 [Ketanserin tartrate hydrate],1.17
19,Cc1cc2nc3c(=O)[nH]c(=O)nc-3n(C[C@H](O)[C@H](O)[C@H](O)CO)c2cc1C [Riboflavine],1.07
20,O=C1NCC2(CCN(CCc3ccccc3)CC2)O1 [Fenspiride hydrochloride],0.909
21,CN(C)CCOC(c1ccccc1)c1ccccc1.Cn1c(=O)c2[nH]c(Cl)nc2n(C)c1=O [Dimenhydrinate],1.1
22,Nc1ncnc2c1ncn2[C@@H]1O[C@H](CO)[C@@H](O)[C@@H]1O [Vidarabine],0.827

# Given as tab-separated lines: four of the compounds above.
row	SMILES	% Pdx1+ Ins1+
6	OCCN1CCN(CC/C=C2/c3ccccc3Sc3ccc(Cl)cc32)CC1 [Zuclopenthixol hydrochloride]	0.876
9	Clc1cccc(Cl)c1NC1=NCCN1 [Clonidine hydrochloride]	0.765
18	O=C(c1ccc(F)cc1)C1CCN(CCn2c(=O)[nH]c3ccccc3c2=O)CC1 [Ketanserin tartrate hydrate]	1.17
20	O=C1NCC2(CCN(CCc3ccccc3)CC2)O1 [Fenspiride hydrochloride]	0.909
